Consider 27 molecules from the supplement of paper PMC10735217.

The subject of this assay is HEK293A TEAD-LUC reporter. Kind of assay: TEAD-luciferase reporter activity (YAP activation), robust Z score vs plate; higher = stronger YAP/TEAD activation. The following applies: 24 h. (In general: Reporter assays use an easily measured gene product as a stand-in for the process of interest.)

Structures can show the parent of a compound that is named as a salt. The list shows a part of the results. This data set is noisy: repeats of one test often differ as much as different tests do.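 The human kidney-derived cells carry a stably integrated construct of eight TEAD-binding elements driving luciferase, read by luminescence in a drug-repurposing library screen. A compound counts as a hit when its signal is more than five robust Z scores above the plate mean.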

As to `Nc1c(Cl)cc(-c2nn(C3CCN(CCc4ccccc4)CC3)c(=O)o2)c2c1OCCO2` [Capeserod hydrochloride], the TEAD-luciferase reporter activity by setting is: (compound concentration: 200 nM) inactive: 0.724; (compound concentration: 2 uM) inactive: -0.52; (compound concentration: 10 uM) inactive: 1.8.
The like results for `CCCCS(=O)(=O)Nc1ccccc1C(=O)N[C@H](CC)c1ccc(OC)nc1` were, in that order, inactive: -0.448, inactive: 0.535 and inactive: -0.995.
The corresponding values for `CC(O)c1ccc(S(=O)(=O)NC(=O)NC2CCCCC2)cc1` (configuration not stated) are inactive: 0.637, inactive: 1.86 and inactive: 1.05.
As for `CCOCCn1nc(C(=O)NS(=O)(=O)CC)c2nc(N(C)CC)nc(Nc3cc(C)ccn3)c21`, the TEAD-luciferase reporter activity is inactive: -1.41 (compound concentration: 200 nM), inactive: 0.402 (compound concentration: 2 uM) and inactive: -0.538 (compound concentration: 10 uM).
Regarding `CN1C(=S)SC(c2ccccc2)N(C)C1c1ccccc1` (configuration not stated), the TEAD-luciferase reporter activity by setting is: (compound concentration: 200 nM) inactive: -1.88; (compound concentration: 2 uM) inactive: -1.49; (compound concentration: 10 uM) inactive: -1.78.
The corresponding values for `O=c1[nH]c(CCl)nc2sc3c(c12)CCCC3` are inactive: -1.18, inactive: -0.3 and inactive: 0.912.
Consider `c1ccc2c(c1)CCCc1cc(NCCN3CCOCC3)nnc1-2`, for which the TEAD-luciferase reporter activity is inactive: -0.473 (compound concentration: 200 nM), inactive: -0.265 (compound concentration: 2 uM) and inactive: -0.0414 (compound concentration: 10 uM).
Take `COc1ccc(N(Cc2cccnc2)c2cccc(C(=O)O)c2)cc1OC1CCCC1`: the TEAD-luciferase reporter activity by setting is: (compound concentration: 200 nM) inactive: 0.405; (compound concentration: 2 uM) inactive: 0.948; (compound concentration: 10 uM) inactive: 1.46.
`Cc1cn(C2CC(N=[N+]=[N-])C(COP(=O)(O)OCC3CCC(n4cnc5c(=O)[nH]cnc54)O3)O2)c(=O)[nH]c1=O` (configuration not stated): the TEAD-luciferase reporter activity runs as follows: (compound concentration: 200 nM) inactive: -1.41; (compound concentration: 2 uM) inactive: 1.96; (compound concentration: 10 uM) inactive: 2.18.
On to `CN(C)CCSc1ccc(/C=c2\[nH]c(=O)/c(=C/c3ccccc3)[nH]c2=O)s1`, for which the TEAD-luciferase reporter activity by setting is: (compound concentration: 200 nM) inactive: 4.33; (compound concentration: 2 uM) inactive: 1.02; (compound concentration: 10 uM) active: 12.2.
For `O=C(O)Cc1ccc2c(c1)OCc1ccccc1C2=O`, the TEAD-luciferase reporter activity is, setting by setting: (compound concentration: 200 nM) inactive: 0.0144; (compound concentration: 2 uM) inactive: 0.988; (compound concentration: 10 uM) inactive: 1.04.
Consider `CCCc1c(COc2ccc(Cc3nnn[nH]3)cc2)ccc(C(C)=O)c1O`, for which the TEAD-luciferase reporter activity is, setting by setting: (compound concentration: 200 nM) inactive: -0.897; (compound concentration: 2 uM) inactive: -2.06; (compound concentration: 10 uM) inactive: 1.8.
The like results for `Cc1cc(-c2ccccc2)nnc1NCCN1CCOCC1` [minaprine] were, in that order, inactive: 1.69, inactive: -1.72 and inactive: 1.6.
With `Nc1ncnc2c1ncn2CC(O)CF` (configuration not stated) [metabolite of FPMPA], for the setting “compound concentration: 2 uM”, the TEAD-luciferase reporter activity was inactive: -0.698.
Turning to `Nc1ncnc2c1ncn2CC(O)CF` (configuration not stated), the TEAD-luciferase reporter activity is, setting by setting: (compound concentration: 200 nM) inactive: 1.11; (compound concentration: 10 uM) active: 8.11.
With `C[C@H]1C[C@H]2[C@@H]3CCC4=CC(=O)C=C[C@]4(C)[C@@]3(F)[C@@H](O)C[C@]2(C)[C@@]1(O)C(=O)COP(=O)(O)O` [betamethasone phosphate], the TEAD-luciferase reporter activity reads like this: (compound concentration: 200 nM) inactive: 0.82; (compound concentration: 2 uM) inactive: -0.916; (compound concentration: 10 uM) inactive: 1.1.
In the case of `O=C(O)c1cc(-c2ccc(F)cc2F)ccc1O`, the TEAD-luciferase reporter activity by setting is: (compound concentration: 200 nM) inactive: 0.445; (compound concentration: 2 uM) inactive: 0.694; (compound concentration: 10 uM) inactive: -1.57.
Consider `CNC(=O)n1ccc2cc(Oc3ccnc(NC(=O)c4ccc(C5CCN(CCO)CC5)cc4)c3)c(OCCOC)cc21`, for which the TEAD-luciferase reporter activity runs as follows: (compound concentration: 200 nM) inactive: -1.25; (compound concentration: 2 uM) inactive: -1.32; (compound concentration: 10 uM) inactive: -0.675.
The corresponding values for `CC[C@@]1(O)C(=O)OCc2c1cc1n(c2=O)Cc2c-1nc1cc3c(cc1c2CN1CCN(C)CC1)OCCO3` are inactive: -1.48, inactive: -1.6 and inactive: -1.63.
`O=C([O-])C1=C(C[n+]2ccc(CCS(=O)(=O)[O-])cc2)CS[C@@H]2[C@H](NC(=O)[C@H](NC(=O)c3nc[nH]c3C(=O)O)c3ccccc3)C(=O)N12` [Cefpimizole Disodium Salt]: the TEAD-luciferase reporter activity (compound concentration: 200 nM) is inactive: -1.77, the TEAD-luciferase reporter activity (compound concentration: 2 uM) is inactive: -1.06 and the TEAD-luciferase reporter activity (compound concentration: 10 uM) was inactive: 0.322.
`CCCn1c(=O)c(C(=O)NNC(=O)C(C)C)c(O)c2ccccc21`: the TEAD-luciferase reporter activity runs as follows: (compound concentration: 200 nM) inactive: -0.496; (compound concentration: 2 uM) inactive: 1.81; (compound concentration: 10 uM) inactive: -0.208.
The corresponding values for `O=C(c1ccccc1Nc1ccncc1)N1CCCCC1` [ofornine] are inactive: 0.71, inactive: -1.43 and inactive: -0.311.
The like results for `CC(C)NNC(=O)COc1ccc(Cl)cc1` were, in that order, inactive: 0.462, inactive: -1.86 and inactive: -0.309.
The like results for `CCCCNc1c2c(nc3ccccc13)CC(C)(C)CC2O` (configuration not stated) were, in that order, inactive: -1.15, inactive: -0.72 and inactive: 0.0913.
As for `O=C(c1ccc(-c2nc(C3CC3)no2)cc1)N1CCCC2CCCC21` (configuration not stated), the TEAD-luciferase reporter activity reads like this: (compound concentration: 200 nM) inactive: -3.1; (compound concentration: 2 uM) inactive: 0.0615; (compound concentration: 10 uM) inactive: -0.612.
For `CC(C)(Oc1ccc(C2CCCc3ccccc32)cc1)C(=O)O` (configuration not stated) [Nafenopin], the TEAD-luciferase reporter activity was inactive: -0.993 (compound concentration: 200 nM) and inactive: 4.36 (compound concentration: 10 uM).
Take `CC[C@H](C)[C@H](NC(=O)[C@H](CO)NC(=O)[C@H](C)NC(=O)[C@H](CC(=O)O)NC(=O)[C@H](CC(C)C)NC(=O)[C@H](CO)NC(=O)[C@@H](N)[C@@H](C)O)C(=O)N[C@H](C(=O)N[C@@H](Cc1c[nH]c2ccccc12)C(=O)N[C@@H](C)C(=O)N[C@@H](CCSC)C(=O)N[C@@H](CCSC)C(=O)N[C@@H](CCC(N)=O)C(=O)N[C@@H](CC(N)=O)C(=O)O)[C@@H](C)CC` [Disitertide]: the TEAD-luciferase reporter activity was inactive: -1.37 (compound concentration: 200 nM), inactive: 1.2 (compound concentration: 2 uM) and inactive: 0.0615 (compound concentration: 10 uM).
